Assay results as given in paper PMC10132691.
Results are given in words; binding and its absence hold for the method and conditions named. Binding seen in cells or lysates may run through a third protein. Some binding calls cover weakened binding; strength is not graded here.

Amino acid sequences for entries named in this document (tags omitted).
UniProt P06241: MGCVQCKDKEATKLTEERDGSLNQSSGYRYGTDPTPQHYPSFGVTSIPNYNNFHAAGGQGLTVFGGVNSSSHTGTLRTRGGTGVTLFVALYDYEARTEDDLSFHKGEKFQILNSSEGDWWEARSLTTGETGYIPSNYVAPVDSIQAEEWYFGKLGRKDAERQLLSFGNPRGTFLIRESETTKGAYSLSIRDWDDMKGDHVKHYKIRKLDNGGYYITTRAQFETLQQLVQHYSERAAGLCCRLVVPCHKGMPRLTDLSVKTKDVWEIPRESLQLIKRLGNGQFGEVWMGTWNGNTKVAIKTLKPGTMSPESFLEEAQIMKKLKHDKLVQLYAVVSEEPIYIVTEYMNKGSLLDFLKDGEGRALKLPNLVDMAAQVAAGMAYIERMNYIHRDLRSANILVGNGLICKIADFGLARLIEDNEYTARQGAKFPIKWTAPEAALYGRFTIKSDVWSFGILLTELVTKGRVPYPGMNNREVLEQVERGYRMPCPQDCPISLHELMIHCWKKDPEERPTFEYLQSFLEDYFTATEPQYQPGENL
UniProt P40763: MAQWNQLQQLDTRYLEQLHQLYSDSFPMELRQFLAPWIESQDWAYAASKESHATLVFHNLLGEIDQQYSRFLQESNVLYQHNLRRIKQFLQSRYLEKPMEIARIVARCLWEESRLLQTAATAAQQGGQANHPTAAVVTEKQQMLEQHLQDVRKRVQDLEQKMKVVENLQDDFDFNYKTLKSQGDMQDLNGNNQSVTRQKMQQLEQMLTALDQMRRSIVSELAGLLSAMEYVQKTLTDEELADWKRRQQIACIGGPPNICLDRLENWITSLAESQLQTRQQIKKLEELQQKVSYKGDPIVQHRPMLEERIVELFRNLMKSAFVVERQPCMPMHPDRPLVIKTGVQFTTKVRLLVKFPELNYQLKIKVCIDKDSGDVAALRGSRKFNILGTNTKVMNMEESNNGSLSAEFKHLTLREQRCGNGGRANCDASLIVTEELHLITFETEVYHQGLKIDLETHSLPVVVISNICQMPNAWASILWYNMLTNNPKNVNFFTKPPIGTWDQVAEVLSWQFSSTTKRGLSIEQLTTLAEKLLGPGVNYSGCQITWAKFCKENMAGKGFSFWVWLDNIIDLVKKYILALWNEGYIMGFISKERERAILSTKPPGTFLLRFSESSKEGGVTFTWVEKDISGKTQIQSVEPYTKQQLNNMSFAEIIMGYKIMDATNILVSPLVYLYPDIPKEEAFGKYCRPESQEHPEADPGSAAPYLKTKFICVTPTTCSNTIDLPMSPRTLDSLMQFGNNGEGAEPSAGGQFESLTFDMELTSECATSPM

Molecular target: tyrosine-protein kinase Fyn (human (endogenous in decidual MDSCs)) (UniProt P06241)
Assay: co-IP; anti-Fyn antibody overnight at 4°C, protein A/G agarose beads; nondenatured lysate of purified human decidual MDSCs infected with T. gondii, with or without anti-Tim-3 mAb or 20 μg/ml rGal-9; Western blot

phosphorylated STAT3 (from UniProt P40763 1-770)
binding: binds
